Some of these results come from one statement about several compounds together. At least one structure is not confirmed: it was looked up by name or label, or the drawing left a doubt.
tested on: Langerhans cells (immature dendritic cells); experiment: FITC screening assay: Langerhans/dendritic cell migration to draining inguinal lymph node after topical FITC in acetone plus migration inducer; assay type: in vivo, C57BL/6 mice; settings: 5 mg/ml FITC in 50/50 acetone and test compound; 2 days (FIG. 7)
Text: Fluorescein isothiocyanate (FITC) has been used extensively by the inventor and others, to characterize Langerhans cell migration. FITC is a small (389 Da) non-peptide, largely lipophilic molecule, capable of crossing the stratum corneum. The antigenicity of FITC is due to the reactivity of its isothiocyanate group (—N═C═S) with free amino groups, permitting it to be covalently bound to proteins and/or peptides. C57BL/6 mice received the following treatments: 1) none; 2) shaving of the abdominal skin only; or shaving of the abdominal skin followed by either 3) topical administration of FITC in acetone; 4) topical administration of FITC in acetone and olive oil; 5) topical administration of FITC in acetone and DMSO diluted in phosphate buffered saline (PBS); or 6) topical administration of FITC in acetone and dibutyl phthalate. The draining inguinal lymph nodes were then examined for immigrant dendritic cells by immunofluorescent flow cytometry each day thereafter. Migratory Langerhans cells were identified by the presence of FITC and co-expression of high MHC class II molecules or by co-expression of the DEC 205 ligand for the monoclonal antibody, NLDC-145. Dendritic cell residents of the lymph nodes could be differentiated by their high expression of MHC class II molecules but lack of FITC, or by their lack of FITC but co-expression of the ligand for the dendritic cell-specific monoclonal antibody, 33D1. The uptake of FITC and the Langerhans cell response to migratory signals were observable in the draining lymph node as early as six hours after topical administration. […]
Compounds which are useful as inducers of immature dendritic cell migration may be screened using the standard FITC methods described for the data presented in FIGS. 1—3. […] After 2 days, the draining inguinal lymph nodes are removed and the total number of dendritic cells (both FITC+ and FITC−) is determined by flow cytometry and MHC class II immunofluorescence or other markers specific for dendritic cells. […]

Compound | induced migration (total MHC class II^hi cells) compared with the positive control dibutyl phthalate (DBP) [standard deviation]
dibenzylbutylphthalate [DBBP] | ≤ 1
CCCCOC(=O)[C@@H](O)[C@H](O)C(=O)OCCCC [DBT, dibutyl-D-tartarate] | ≤ 1
CC(C)CCCCCCOC(=O)c1ccccc1C(=O)OCCCCCCC(C)C [DINP, diisononylphthalate] | ≤ 1

Reference: patent US7229621B2, “Method to enhance the immunogenicity of an antigen” (Torrey Pines Institute for Molecular Studies, priority 1998, dated 2007)
